Source: PubChem BioAssay
Some of the results follow. Results with a measured potency or affinity are listed apart. The source made no clear call on entries shown without one.

Assay: Drosophila SCA1 whole organism dose response for polyglutamine toxicity reduction (AID 1595)
Conditions: Drosophila SCA1 polyglutamine model, at 1 µM, stronger effect = higher value

Row | SMILES | suppression of toxicity
1 | Cc1c(C(N)=O)cc([N+](=O)[O-])cc1[N+](=O)[O-] | 4.29
2 | O=C1CN(/N=C/c2ccc([N+](=O)[O-])o2)C(=O)N1 | 4.29
3 | S=c1nc[nH]c2nc[nH]c12 | 7.14
4 | NC(N)=NCCCCN=C(N)N | 4.29
5 | COC(=O)C(C)C[N+](C)(C)C (stereo not given) | 2.86
6 | CC(CN(C)C)CN1c2ccccc2Sc2ccccc21 (stereo not given) | 2.86
7 | NC(COCc1ccccc1)C(=O)O (stereo not given) | 0
8 | O=C(O)c1ccccc1O | 11.4
9 | Clc1ccc(C(c2ccccc2Cl)C(Cl)Cl)cc1 (stereo not given) | 0
10 | Nc1ccc(S(N)(=O)=O)cc1 | 7.14
11 | CCC(c1ccc(O)cc1)C(CC)c1ccc(O)cc1 (stereo not given) | 4.29
12 | COC1=CC(=O)C[C@@H](C)[C@]12Oc1c(Cl)c(OC)cc(OC)c1C2=O | 7.14
13 | CN1CCN(C2=Nc3cc(Cl)ccc3Nc3ccccc32)CC1 | 2.85
14 | C#C[C@]1(O)CCC2C3CCC4=CC(=O)CC[C@@H]4C3CC[C@@]21CC (stereo not given in full) | 0
15 | CCC(C)C(N)C1=NC(C(=O)NC(CC(C)C)C(=O)NC(CCC(=O)O)C(=O)NC(C(=O)NCCCCC2NC(=O)C(CC(N)=O)NC(=O)C(CC(=O)O)NC(=O)C(Cc3cnc[nH]3)NC(=O)C(Cc3ccccc3)NC(=O)C(C(C)CC)NC(=O)C(CCCN)NC2=O)C(C)CC)CS1 (stereo not given) | 0
16 | COc1cc2nc(N3CCN(C(=O)c4ccco4)CC3)nc(N)c2cc1OC | 4.29
17 | CCn1cc(C(=O)O)c(=O)c2cc(F)c(N3CCNCC3)cc21 | 2.86
18 | COc1cccc(C(=O)c2ccccc2O)c1O | 0
19 | CC1(C)S[C@@H]2[C@H](NC(=O)COc3ccccc3)C(=O)N2[C@H]1C(=O)O | 5.71
20 | O=C(O)CN(CC(=O)O)Cc1cc2c(-c3ccccc3C(=O)O)c3cc(CN(CC(=O)O)CC(=O)O)c(=O)cc-3oc2cc1O | 1.43

Given tab-delimited: entries from further up
Row	SMILES	suppression of toxicity
2	O=C1CN(/N=C/c2ccc([N+](=O)[O-])o2)C(=O)N1	4.29
7	NC(COCc1ccccc1)C(=O)O (stereo not given)	0
